Consider three substances from article PMC8221569.

Amino acid sequences for entries named in this document (tags omitted).
UniProt P11142: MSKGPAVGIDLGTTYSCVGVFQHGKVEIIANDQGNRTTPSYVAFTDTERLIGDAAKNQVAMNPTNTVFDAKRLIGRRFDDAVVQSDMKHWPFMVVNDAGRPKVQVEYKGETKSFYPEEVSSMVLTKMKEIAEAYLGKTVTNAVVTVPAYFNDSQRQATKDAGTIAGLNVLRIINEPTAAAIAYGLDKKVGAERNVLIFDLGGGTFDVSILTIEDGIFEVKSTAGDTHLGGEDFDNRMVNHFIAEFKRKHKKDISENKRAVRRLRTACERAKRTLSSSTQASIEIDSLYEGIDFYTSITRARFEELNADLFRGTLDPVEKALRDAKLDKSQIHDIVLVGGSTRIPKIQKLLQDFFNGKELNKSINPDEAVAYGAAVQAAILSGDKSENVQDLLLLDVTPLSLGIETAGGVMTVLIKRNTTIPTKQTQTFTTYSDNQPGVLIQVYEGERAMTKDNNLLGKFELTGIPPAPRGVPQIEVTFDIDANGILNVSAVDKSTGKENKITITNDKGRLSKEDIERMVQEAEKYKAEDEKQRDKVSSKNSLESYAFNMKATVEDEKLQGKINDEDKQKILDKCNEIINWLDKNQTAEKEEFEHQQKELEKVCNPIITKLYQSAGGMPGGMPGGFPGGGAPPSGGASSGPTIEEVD
UniProt O95816: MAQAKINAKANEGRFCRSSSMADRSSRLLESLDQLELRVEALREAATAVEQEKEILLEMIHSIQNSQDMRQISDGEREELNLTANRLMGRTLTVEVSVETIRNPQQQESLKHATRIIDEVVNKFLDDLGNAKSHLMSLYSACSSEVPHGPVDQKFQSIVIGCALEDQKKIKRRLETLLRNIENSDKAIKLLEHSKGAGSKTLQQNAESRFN

Where a chain is given by its changes, count along the chain named. No constants are given. Whether binding was seen depends on the method and setting. In cells and extracts the contact can be indirect. These calls come from enrichment with a bait or labelling near it, and not all partners need be listed. For some of these results: A no says only that the protein was not detected with the bait. Tags and fused reporters may be left off the sequences shown.

Test [1] addresses T1, DNAJC9-MYC-Flag WT (human) (UniProt Q8WXX5).
T1 sequence: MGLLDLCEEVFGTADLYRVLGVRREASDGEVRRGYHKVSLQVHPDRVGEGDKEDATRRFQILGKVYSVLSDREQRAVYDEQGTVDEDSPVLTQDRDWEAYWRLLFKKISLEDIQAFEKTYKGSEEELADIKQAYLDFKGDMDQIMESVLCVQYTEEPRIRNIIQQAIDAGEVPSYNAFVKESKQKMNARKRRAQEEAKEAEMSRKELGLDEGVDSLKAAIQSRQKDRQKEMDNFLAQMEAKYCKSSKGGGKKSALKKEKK
Briefly: affinity purification with mass spectrometry; triple SILAC; DNAJC9-Myc-Flag WT, 4A and control purifications on anti-Flag M2 beads from U-2-OS extracts; n = 2.

Test [2] deals with T1, DNAJC9-MYC-Flag WT (human). Briefly: affinity purification with mass spectrometry; label-free; DNAJC9-Myc-Flag WT, J, 4A and control purifications on anti-Flag M2 beads from MNase-digested U-2-OS chromatin extracts; n = 6.
In test [3] the target is T2, DNAJC9-Q224A-R227A-M238A-Y242A-MYC-Flag (4A) (human) (UniProt Q8WXX5).
T2 sequence: T1 sequence with Q224A, R227A, M238A, Y242A
In words: affinity purification with mass spectrometry; triple SILAC; DNAJC9-Myc-Flag WT, 4A and control purifications on anti-Flag M2 beads from U-2-OS extracts; n = 2.

Consider “HSP7C (HSC70, endogenous) (from UniProt P11142 1-646)”, for which the binding result in test [1] and in test [2] was “binds” each time.

Turning to “MCM2 (endogenous) (from UniProt P49736 1-904)”, the binding result in test [3] is given as “no binding”.

Regarding “BAG2 (endogenous) (from UniProt O95816 1-211)”, in test [1], the binding result is on record as “binds”.
